{"source": "PubChem BioAssay AID1053208 (Peter MacCallum Cancer Centre, 2014)", "screen": "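Synthetic lethal interactions between gene loss and doxorubicin in osteosarcoma cells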 (primary screen)", "cell system": "mouse osteosarcoma cells, early-passage culture from an engineered mouse model of fibroblastic bone tumour", "knock-down reagent": "siRNA pool against mouse genes, 40 nM", "duration": "about 120 h (48 h before drug, then 72 h with drug)", "conditions": "doxorubicin 100 nM for 72 h, roughly 30-40% inhibitory dose", "measured": "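Viability read as ATP luminescence after 72 h of 100 nM doxorubicin or none, duplicate wells averaged, scaled to non-targeting siRNA, then expressed as robust z-scores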", "scale": "viability z-score with doxorubicin: higher = more viable cells under doxorubicin; viability z-score without drug: higher = more viable cells with knock-down alone", "hit rule": "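a pool counts as active when its viability z-score with doxorubicin is -2 or below and its z-score without drug lies between -2 and 2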", "note": "In all, the deposit lists about 17,000 reagents; shown is a part drawn at random. 788 of them (4.7%) were called active. 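Calls rest on z-score classes alone; an extra cut-off of viability at most 70% of control was not applied to them.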 Reagents against one gene are numbered here. Not all columns of the deposit are shown."}
{"gene knocked down": "Cfap52 (cilia and flagella associated protein 52)", "reagent no.": 1, "combined z-score class": "no change with or without drug", "viability z-score with doxorubicin": 0.34, "viability z-score without drug": 1.35, "call": "inactive"}
{"gene knocked down": "Cdh4 (cadherin 4)", "reagent no.": 1, "combined z-score class": "no change with or without drug", "viability z-score with doxorubicin": -1.91, "viability z-score without drug": -0.84, "call": "inactive"}
{"gene knocked down": "Ccp110 (centriolar coiled coil protein 110)", "reagent no.": 1, "combined z-score class": "low cell count without drug only", "viability z-score with doxorubicin": -0.67, "viability z-score without drug": -5.9, "call": "inactive"}
{"gene knocked down": "Gnb2 (guanine nucleotide binding protein (G protein), beta 2)", "reagent no.": 1, "combined z-score class": "no change with or without drug", "viability z-score with doxorubicin": 0.34, "viability z-score without drug": -0.17, "call": "inactive"}
{"gene knocked down": "Kcnh7", "reagent no.": 1, "combined z-score class": "no change with or without drug", "viability z-score with doxorubicin": 0.22, "viability z-score without drug": -0.51, "call": "inactive"}
{"gene knocked down": "Wnk4 (WNK lysine deficient protein kinase 4)", "reagent no.": 1, "combined z-score class": "no change with or without drug", "viability z-score with doxorubicin": 0.45, "viability z-score without drug": -1.85, "call": "inactive"}
{"gene knocked down": "Smg9 (SMG9 nonsense mediated mRNA decay factor)", "reagent no.": 1, "combined z-score class": "no change with or without drug", "viability z-score with doxorubicin": -0.9, "viability z-score without drug": -1.18, "call": "inactive"}
{"gene knocked down": "Ctsg (cathepsin G)", "reagent no.": 1, "combined z-score class": "no change with or without drug", "viability z-score with doxorubicin": 0.67, "viability z-score without drug": -0.67, "call": "inactive"}
{"gene knocked down": "Thyn1 (thymocyte nuclear protein 1)", "reagent no.": 1, "combined z-score class": "no change with or without drug", "viability z-score with doxorubicin": -1.35, "viability z-score without drug": 0.34, "call": "inactive"}
{"gene knocked down": "Pcdha7 (protocadherin alpha 7)", "reagent no.": 1, "combined z-score class": "no change with or without drug", "viability z-score with doxorubicin": -1.12, "viability z-score without drug": -0.17, "call": "inactive"}

The list goes on; the last 2 above are carried over.
{"gene knocked down": "Thyn1 (thymocyte nuclear protein 1)", "reagent no.": 1, "combined z-score class": "no change with or without drug", "viability z-score with doxorubicin": -1.35, "viability z-score without drug": 0.34, "call": "inactive"}
{"gene knocked down": "Pcdha7 (protocadherin alpha 7)", "reagent no.": 1, "combined z-score class": "no change with or without drug", "viability z-score with doxorubicin": -1.12, "viability z-score without drug": -0.17, "call": "inactive"}
{"gene knocked down": "Obox5 (oocyte specific homeobox 5)", "reagent no.": 1, "combined z-score class": "no change with or without drug", "viability z-score with doxorubicin": -1.12, "viability z-score without drug": 0.17, "call": "inactive"}
{"gene knocked down": "Gm56926 (predicted gene, 56926)", "reagent no.": 1, "combined z-score class": "high cell count with and without drug", "viability z-score with doxorubicin": 2.59, "viability z-score without drug": 2.36, "call": "inactive"}
{"gene knocked down": "Nup42 (nucleoporin 42)", "reagent no.": 1, "combined z-score class": "no change with or without drug", "viability z-score with doxorubicin": 0, "viability z-score without drug": -0.84, "call": "inactive"}
{"gene knocked down": "Med22 (mediator complex subunit 22)", "reagent no.": 1, "combined z-score class": "no change with or without drug", "viability z-score with doxorubicin": -0.79, "viability z-score without drug": 0.17, "call": "inactive"}
{"gene knocked down": "Tfb1m (transcription factor B1, mitochondrial)", "reagent no.": 1, "combined z-score class": "no change with or without drug", "viability z-score with doxorubicin": -0.45, "viability z-score without drug": -1.18, "call": "inactive"}
{"gene knocked down": "Rapgef4 (Rap guanine nucleotide exchange factor (GEF) 4)", "reagent no.": 1, "combined z-score class": "no change with or without drug", "viability z-score with doxorubicin": 0, "viability z-score without drug": -1.01, "call": "inactive"}
{"gene knocked down": "Rapgef4 (Rap guanine nucleotide exchange factor (GEF) 4)", "reagent no.": 2, "combined z-score class": "no change with or without drug", "viability z-score with doxorubicin": -0.22, "viability z-score without drug": 0.17, "call": "inactive"}
{"gene knocked down": "Stoml1 (stomatin-like 1)", "reagent no.": 1, "combined z-score class": "no change with or without drug", "viability z-score with doxorubicin": -0.11, "viability z-score without drug": -0.17, "call": "inactive"}
{"gene knocked down": "Vstm2b (V-set and transmembrane domain containing 2B)", "reagent no.": 1, "combined z-score class": "no change with or without drug", "viability z-score with doxorubicin": -0.45, "viability z-score without drug": -1.01, "call": "inactive"}
{"gene knocked down": "Gadd45a (growth arrest and DNA-damage-inducible 45 alpha)", "reagent no.": 1, "combined z-score class": "no change with or without drug", "viability z-score with doxorubicin": 0.56, "viability z-score without drug": -0.84, "call": "inactive"}
{"gene knocked down": "Inca1 (inhibitor of CDK, cyclin A1 interacting protein 1)", "reagent no.": 1, "combined z-score class": "no change with or without drug", "viability z-score with doxorubicin": 0.34, "viability z-score without drug": 0.17, "call": "inactive"}
{"gene knocked down": "Thoc7 (THO complex 7)", "reagent no.": 1, "combined z-score class": "low cell count with and without drug", "viability z-score with doxorubicin": -3.26, "viability z-score without drug": -3.71, "call": "inactive"}
{"gene knocked down": "Thoc7 (THO complex 7)", "reagent no.": 2, "combined z-score class": "no change with or without drug", "viability z-score with doxorubicin": 0.67, "viability z-score without drug": 0.84, "call": "inactive"}
{"gene knocked down": "Dok7 (docking protein 7)", "reagent no.": 1, "combined z-score class": "no change with or without drug", "viability z-score with doxorubicin": 0.34, "viability z-score without drug": 0.84, "call": "inactive"}
{"gene knocked down": "Rasal1 (RAS protein activator like 1 (GAP1 like))", "reagent no.": 1, "combined z-score class": "high cell count with doxorubicin only", "viability z-score with doxorubicin": 2.25, "viability z-score without drug": 0.51, "call": "inactive"}
{"gene knocked down": "Asb7 (ankyrin repeat and SOCS box-containing 7)", "reagent no.": 1, "combined z-score class": "no change with or without drug", "viability z-score with doxorubicin": -1.69, "viability z-score without drug": -0.67, "call": "inactive"}
{"gene knocked down": "Mgst1 (microsomal glutathione S-transferase 1)", "reagent no.": 1, "combined z-score class": "no change with or without drug", "viability z-score with doxorubicin": 0.22, "viability z-score without drug": 1.69, "call": "inactive"}
{"gene knocked down": "Slc27a2", "reagent no.": 1, "combined z-score class": "no change with or without drug", "viability z-score with doxorubicin": 0, "viability z-score without drug": 1.18, "call": "inactive"}
